Some of the results follow.
Tests used:
Test in all cases: log2 fold change, soluble protein after heating vs DMSO (PISA); higher = thermal stabilisation; K562 cells, 10 uM, 30 min; active = over 0.2 and 3.5 SD of the protein, either way, in both replicates (recomputed)
[1] = compound: CS(=O)(=O)c1ccc(-c2cnc(N)c(C(=O)Nc3ccccc3)n2)cc1
In short: (§1)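 Values are thermal stability changes relative to control samples and are taken from duplicates. They are stated as log2 fold changes. Before quantification by TMTpro 16plex LC-MS/MS with equalised channel sums, K562 cells at 2×10^6 cells/mL were treated with 10 μM compound for 30 min, heated in aliquots for 3 min across 48°C-58°C, pooled, extracted in PBS with 0.5% NP-40 at 4°C, and centrifuged at 21,000xg for 90 min to give the soluble supernatant.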

Amino acid sequences for entries named in this document (tags omitted). A change or cut given only in a name is not applied to a line headed by its entry.
UniProt Q9UPQ9, whole entry, looked up: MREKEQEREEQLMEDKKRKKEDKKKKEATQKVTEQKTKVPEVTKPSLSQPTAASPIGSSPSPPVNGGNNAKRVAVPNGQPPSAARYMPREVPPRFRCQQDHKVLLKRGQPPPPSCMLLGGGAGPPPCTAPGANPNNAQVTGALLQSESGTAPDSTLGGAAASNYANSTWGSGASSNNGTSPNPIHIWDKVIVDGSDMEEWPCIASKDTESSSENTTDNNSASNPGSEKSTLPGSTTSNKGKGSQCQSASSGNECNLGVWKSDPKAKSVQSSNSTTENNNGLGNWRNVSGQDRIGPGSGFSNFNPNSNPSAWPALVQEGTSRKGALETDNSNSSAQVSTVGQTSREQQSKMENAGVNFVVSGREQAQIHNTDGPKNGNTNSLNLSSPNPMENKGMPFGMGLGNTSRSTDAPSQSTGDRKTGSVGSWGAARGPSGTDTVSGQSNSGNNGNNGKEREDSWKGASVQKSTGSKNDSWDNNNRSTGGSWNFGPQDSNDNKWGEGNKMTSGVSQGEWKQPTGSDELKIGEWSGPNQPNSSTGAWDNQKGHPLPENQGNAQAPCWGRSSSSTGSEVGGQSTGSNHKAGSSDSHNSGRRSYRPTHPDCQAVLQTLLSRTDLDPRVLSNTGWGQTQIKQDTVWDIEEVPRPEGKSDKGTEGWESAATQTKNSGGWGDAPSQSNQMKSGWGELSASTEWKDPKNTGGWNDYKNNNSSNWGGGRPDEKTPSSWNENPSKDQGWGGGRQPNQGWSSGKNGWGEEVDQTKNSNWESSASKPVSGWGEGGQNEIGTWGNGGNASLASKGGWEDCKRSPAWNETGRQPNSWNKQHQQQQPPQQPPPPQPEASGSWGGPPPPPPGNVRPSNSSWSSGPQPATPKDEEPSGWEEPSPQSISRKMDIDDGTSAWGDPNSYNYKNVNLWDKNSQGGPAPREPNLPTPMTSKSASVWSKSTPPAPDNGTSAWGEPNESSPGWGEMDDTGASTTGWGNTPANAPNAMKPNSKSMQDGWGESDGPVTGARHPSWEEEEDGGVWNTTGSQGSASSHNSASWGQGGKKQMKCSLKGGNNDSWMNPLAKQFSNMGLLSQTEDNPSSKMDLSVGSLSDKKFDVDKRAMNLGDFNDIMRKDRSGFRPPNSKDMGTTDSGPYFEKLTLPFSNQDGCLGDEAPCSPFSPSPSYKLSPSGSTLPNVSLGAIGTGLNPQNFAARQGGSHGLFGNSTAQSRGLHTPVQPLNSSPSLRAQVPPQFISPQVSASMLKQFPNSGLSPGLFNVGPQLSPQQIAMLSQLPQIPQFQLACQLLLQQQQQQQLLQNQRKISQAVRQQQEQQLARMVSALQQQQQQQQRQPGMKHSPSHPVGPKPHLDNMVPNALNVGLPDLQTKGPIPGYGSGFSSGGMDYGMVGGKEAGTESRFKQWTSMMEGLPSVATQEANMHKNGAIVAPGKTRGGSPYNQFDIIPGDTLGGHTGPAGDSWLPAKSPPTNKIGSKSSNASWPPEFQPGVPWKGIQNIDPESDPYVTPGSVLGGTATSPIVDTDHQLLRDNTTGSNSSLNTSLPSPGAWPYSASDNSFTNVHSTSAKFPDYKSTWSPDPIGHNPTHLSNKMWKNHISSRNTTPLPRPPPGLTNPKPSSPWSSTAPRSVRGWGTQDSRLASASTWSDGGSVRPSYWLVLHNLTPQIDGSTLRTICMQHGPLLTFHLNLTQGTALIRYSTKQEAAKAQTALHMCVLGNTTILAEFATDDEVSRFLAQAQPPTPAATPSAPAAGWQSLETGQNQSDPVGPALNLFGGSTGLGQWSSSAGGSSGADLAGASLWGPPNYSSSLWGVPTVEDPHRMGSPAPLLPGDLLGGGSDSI
UniProt Q92973: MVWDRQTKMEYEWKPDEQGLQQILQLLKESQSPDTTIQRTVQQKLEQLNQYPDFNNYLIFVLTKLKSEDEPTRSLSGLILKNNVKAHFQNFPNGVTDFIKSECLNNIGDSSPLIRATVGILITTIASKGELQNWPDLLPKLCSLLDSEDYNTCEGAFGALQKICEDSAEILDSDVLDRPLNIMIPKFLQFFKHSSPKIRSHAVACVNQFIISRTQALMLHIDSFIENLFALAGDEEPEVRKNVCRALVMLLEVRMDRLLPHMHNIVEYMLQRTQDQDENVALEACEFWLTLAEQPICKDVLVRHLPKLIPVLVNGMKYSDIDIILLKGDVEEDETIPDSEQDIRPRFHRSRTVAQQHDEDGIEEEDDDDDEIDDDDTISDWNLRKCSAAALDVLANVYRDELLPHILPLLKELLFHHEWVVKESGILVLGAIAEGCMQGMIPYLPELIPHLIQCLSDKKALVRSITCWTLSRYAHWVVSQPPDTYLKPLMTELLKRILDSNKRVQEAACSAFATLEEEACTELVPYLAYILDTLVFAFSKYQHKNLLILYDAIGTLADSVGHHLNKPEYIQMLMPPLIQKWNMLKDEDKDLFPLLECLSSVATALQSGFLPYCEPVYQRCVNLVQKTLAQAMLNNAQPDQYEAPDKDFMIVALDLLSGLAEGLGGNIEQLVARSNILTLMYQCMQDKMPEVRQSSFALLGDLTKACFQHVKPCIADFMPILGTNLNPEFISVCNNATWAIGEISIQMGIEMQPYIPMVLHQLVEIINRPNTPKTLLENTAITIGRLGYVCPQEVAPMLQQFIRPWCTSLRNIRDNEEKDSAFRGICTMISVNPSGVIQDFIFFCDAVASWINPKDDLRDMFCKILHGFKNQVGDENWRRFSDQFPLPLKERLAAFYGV
UniProt Q15642: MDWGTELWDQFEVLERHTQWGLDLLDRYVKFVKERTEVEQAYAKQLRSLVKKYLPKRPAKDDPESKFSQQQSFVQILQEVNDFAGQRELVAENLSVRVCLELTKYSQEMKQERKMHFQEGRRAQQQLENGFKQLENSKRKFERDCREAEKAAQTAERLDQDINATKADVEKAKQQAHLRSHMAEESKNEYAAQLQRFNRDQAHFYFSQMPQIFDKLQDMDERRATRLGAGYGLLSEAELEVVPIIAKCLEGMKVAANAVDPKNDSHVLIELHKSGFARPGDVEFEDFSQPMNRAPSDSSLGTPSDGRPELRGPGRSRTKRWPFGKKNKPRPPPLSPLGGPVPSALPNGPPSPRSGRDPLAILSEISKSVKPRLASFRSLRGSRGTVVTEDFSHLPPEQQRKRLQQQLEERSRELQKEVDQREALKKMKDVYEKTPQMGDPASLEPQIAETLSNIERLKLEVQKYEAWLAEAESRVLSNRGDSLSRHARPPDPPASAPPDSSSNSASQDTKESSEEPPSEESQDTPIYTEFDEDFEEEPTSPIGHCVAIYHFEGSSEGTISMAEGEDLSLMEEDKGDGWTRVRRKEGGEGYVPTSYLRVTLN
UniProt Q8TBZ6: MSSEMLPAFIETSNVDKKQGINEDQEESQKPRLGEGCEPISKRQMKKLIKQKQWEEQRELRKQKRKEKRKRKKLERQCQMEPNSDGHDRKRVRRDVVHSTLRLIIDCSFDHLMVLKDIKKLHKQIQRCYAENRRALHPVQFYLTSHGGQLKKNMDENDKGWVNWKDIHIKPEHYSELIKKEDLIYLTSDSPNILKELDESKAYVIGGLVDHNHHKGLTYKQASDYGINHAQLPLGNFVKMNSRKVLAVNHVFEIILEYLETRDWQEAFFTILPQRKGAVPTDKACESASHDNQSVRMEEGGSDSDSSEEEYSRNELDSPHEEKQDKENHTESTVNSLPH
UniProt Q9H3S4: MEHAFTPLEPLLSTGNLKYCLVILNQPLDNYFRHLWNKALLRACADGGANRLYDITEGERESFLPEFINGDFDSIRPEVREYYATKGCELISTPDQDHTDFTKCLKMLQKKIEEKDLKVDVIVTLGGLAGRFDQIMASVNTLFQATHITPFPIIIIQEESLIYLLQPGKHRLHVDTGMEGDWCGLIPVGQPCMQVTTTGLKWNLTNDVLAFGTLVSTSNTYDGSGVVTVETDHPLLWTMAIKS
UniProt Q12933: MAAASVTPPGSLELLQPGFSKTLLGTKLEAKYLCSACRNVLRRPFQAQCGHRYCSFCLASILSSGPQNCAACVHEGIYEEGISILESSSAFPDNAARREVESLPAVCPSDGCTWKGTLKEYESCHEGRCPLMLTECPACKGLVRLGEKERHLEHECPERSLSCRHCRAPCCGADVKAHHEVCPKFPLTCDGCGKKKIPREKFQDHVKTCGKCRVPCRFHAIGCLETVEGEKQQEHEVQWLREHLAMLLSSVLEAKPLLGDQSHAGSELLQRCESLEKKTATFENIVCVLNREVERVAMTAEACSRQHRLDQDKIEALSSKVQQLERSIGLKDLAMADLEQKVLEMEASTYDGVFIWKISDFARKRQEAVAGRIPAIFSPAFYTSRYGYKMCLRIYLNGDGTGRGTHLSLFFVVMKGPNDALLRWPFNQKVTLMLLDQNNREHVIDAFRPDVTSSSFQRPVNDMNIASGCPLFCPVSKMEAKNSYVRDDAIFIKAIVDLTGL
UniProt Q86SZ2: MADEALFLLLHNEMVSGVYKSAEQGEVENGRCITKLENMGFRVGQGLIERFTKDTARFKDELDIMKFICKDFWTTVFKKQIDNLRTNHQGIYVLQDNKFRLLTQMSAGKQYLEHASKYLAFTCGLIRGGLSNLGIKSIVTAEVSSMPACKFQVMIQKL
UniProt Q9Y3Q8: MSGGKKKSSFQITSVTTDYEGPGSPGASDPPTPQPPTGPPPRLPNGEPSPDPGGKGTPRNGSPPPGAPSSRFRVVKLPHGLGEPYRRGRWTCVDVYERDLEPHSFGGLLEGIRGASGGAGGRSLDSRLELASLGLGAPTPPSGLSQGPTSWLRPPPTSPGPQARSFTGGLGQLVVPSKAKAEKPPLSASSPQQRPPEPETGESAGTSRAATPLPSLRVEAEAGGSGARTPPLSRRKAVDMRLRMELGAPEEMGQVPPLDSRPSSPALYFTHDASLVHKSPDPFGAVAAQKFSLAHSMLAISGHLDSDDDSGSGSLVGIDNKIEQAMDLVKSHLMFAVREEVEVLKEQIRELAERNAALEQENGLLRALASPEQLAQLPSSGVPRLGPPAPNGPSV
UniProt P02585, whole entry, looked up: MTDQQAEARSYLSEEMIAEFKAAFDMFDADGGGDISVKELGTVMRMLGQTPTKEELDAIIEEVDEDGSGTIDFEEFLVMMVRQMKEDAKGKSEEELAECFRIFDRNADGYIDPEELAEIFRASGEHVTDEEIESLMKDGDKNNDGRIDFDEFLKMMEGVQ
UniProt O75674: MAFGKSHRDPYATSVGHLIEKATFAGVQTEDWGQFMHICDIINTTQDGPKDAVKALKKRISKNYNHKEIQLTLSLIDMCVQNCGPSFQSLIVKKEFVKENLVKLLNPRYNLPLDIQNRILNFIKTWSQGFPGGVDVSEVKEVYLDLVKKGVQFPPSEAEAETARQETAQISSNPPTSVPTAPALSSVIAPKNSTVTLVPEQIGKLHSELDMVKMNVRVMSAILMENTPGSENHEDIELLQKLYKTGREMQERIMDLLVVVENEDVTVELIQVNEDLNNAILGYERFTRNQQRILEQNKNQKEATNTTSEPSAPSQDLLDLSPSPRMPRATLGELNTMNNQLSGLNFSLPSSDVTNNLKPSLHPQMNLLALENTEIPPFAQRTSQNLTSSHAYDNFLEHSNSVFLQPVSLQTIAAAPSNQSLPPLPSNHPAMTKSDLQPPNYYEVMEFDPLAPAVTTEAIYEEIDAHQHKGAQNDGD
UniProt Q15629: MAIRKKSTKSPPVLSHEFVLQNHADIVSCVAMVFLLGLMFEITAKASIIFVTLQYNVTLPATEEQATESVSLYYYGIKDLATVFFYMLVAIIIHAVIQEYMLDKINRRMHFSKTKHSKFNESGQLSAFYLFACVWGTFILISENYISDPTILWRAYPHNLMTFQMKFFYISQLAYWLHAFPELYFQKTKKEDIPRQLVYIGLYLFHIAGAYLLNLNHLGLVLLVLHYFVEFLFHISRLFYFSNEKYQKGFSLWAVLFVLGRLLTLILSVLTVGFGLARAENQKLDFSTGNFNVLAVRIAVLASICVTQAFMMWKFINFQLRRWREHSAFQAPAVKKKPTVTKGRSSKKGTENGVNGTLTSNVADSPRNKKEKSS
UniProt A5PLN9: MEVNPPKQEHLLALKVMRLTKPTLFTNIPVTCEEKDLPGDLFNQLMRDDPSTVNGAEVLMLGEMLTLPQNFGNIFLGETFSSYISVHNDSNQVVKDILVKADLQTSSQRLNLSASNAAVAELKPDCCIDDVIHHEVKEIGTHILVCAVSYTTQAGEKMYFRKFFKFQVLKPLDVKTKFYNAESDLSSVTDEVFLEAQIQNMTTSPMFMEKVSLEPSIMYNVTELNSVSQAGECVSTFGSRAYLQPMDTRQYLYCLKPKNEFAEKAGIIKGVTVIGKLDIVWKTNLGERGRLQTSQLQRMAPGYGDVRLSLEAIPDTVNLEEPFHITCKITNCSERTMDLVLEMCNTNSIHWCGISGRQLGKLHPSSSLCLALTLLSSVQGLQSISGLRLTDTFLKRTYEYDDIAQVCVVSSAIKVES

[2] = compound: C[C@@H](Oc1cc(-c2cnn(C3CCNCC3)c2)cnc1N)c1c(Cl)ccc(F)c1Cl [crizotinib]
In short: as §1

[3] = compound: C[C@@H]1COCCN1C2=NC(=NC(=C2)C3(CC3)S(=O)(=O)C)C4=C5C=CNC5=CC=C4
In short: as §1

[4] = compound: C[C@H](C1=CC=C(C=C1)C(=O)NC2=C3C=CNC3=NC=C2)N
In short: as §1

[5] = compound: C[C@H](Nc1ncnc2nc[nH]c12)c1cc2cccc(Cl)c2c(=O)n1-c1ccccc1 [duvelisib]
In short: as §1

[6] = compound: Cc1cc(Nc2cc(CN3CCOCC3)c3nc(C)c(Cc4ccc(Cl)cc4F)n3n2)n[nH]1 [gandotinib]
In short: as §1

[7] = compound: Cc1cc(Nc2cc(N3CCN(C)CC3)nc(Sc3ccc(NC(=O)C4CC4)cc3)n2)n[nH]1 [tozasertib]
In short: as §1

[8] = compound: Cc1cc(SCc2sc(-c3ccc(C(F)(F)F)cc3)nc2C)ccc1OCC(=O)O
In short: as §1

[9] = compound: Cc1ccc(-n2nc(C(C)(C)C)cc2NC(=O)Nc2ccc(OCCN3CCOCC3)c3ccccc23)cc1 [doramapimod]
In short: as §1

[10] = compound: Cc1ccc(NC(=O)c2ccc(CN3CC[C@H](N(C)C)C3)c(C(F)(F)F)c2)cc1Nc1nccc(-c2cncnc2)n1 [bafetinib]
In short: as §1

[11] = compound: Cc1cccc(CC(=O)N2CCc3c2ccc(-c2cn(C)c4ncnc(N)c24)c3F)n1
In short: as §1

[12] = compound: Cc1nc(Nc2ncc(C(=O)Nc3c(C)cccc3Cl)s2)cc(N2CCN(CCO)CC2)n1 [dasatinib]
In short: as §1

[13] = compound: Cn1cc(-c2ccc3c(c2)CCN3C(=O)Cc2cccc(C(F)(F)F)c2)c2c(N)ncnc21
In short: as §1

[14] = compound: Cn1cncc1[C@@](N)(c1ccc(Cl)cc1)c1ccc2c(c1)c(-c1cccc(Cl)c1)cc(=O)n2C [tipifarnib]
In short: as §1

[15] = compound: Cc1ccc(C(=O)N(CCCN)[C@@H](c2nc3cc(Cl)ccc3c(=O)n2Cc2ccccc2)C(C)C)cc1 [ispinesib]
In short: as §1

[16] = compound: Cc1cn(-c2cc(NC(=O)c3ccc(C)c(Nc4nccc(-c5cccnc5)n4)c3)cc(C(F)(F)F)c2)cn1 [nilotinib]
In short: as §1

[17] = compound: Cc1nc(Nc2n[nH]c3c2CN(C(=O)N[C@H](CN(C)C)c2ccccc2)C3(C)C)c2sccc2n1
In short: as §1

[18] = compound: Cc1ncc(-c2ccnc(Nc3ccc(S(C)(=O)=O)cc3)n2)n1C(C)C
In short: as §1

[19] = compound: Cn1cc(-c2ccc3nnc(C(F)(F)c4ccc5ncccc5c4)n3n2)cn1
In short: as §1

[20] = compound: FC(F)(F)c1ccc(/C=C/c2nc(COc3ccc(CCCCn4ccnn4)cc3)co2)cc1 [mubritinib]
In short: as §1

Measured: log2 fold change

TNRC6B (UniProt Q9UPQ9)
inactive: [1] -0.021 | [2] -0.056 | [3] -0.025 | [4] 0.033 | [5] -0.063 | [6] 0.078 | [7] -0.03 | [8] -0.078 | [9] 0.179 | [10] -0.028 | [11] 0.035 | [12] 0.127 | [13] 0.024 | [14] 0.093

TNPO1 (UniProt Q92973)
inactive: [1] -0.008 | [2] -0.034 | [3] 0.058 | [4] -0.116 | [6] -0.128 | [8] 0.011 | [9] -0.034 | [15] -0.113 | [10] -0.104 | [11] 0.022 | [16] -0.037 | [17] -0.128 | [12] -0.067 | [18] -0.079 | [13] -0.034 | [19] 0.009 | [14] -0.026 | [20] 0.005

TRMT112 (UniProt Q9UI30)
inactive: [1] 0.011 | [2] 0.101 | [3] 0.111 | [4] -0.073 | [5] 0.154 | [6] 0.004 | [7] -0.095 | [8] 0.112 | [9] 0.034 | [15] -0.019 | [10] -0.023 | [11] -0.061 | [16] -0.014 | [17] -0.002 | [12] -0.081 | [18] -0.022 | [13] 0 | [19] 0.081 | [14] -0.099 | [20] -0.017

TRIP10 (UniProt Q15642)
inactive: [1] 0.08 | [2] -0.009 | [3] -0.085 | [4] -0.026 | [6] 0.044 | [8] 0.038 | [9] -0.036 | [15] -0.021 | [10] -0.042 | [11] 0.05 | [16] 0.098 | [17] -0.017 | [12] -0.06 | [18] -0.021 | [13] 0.045 | [19] 0.024 | [14] -0.01 | [20] 0.048

TRMT10A (UniProt Q8TBZ6)
inactive: [1] 0.012 | [2] 0.01 | [3] 0.093 | [4] -0.072 | [6] 0 | [8] 0.016 | [9] -0.023 | [15] 0.028 | [10] 0.006 | [11] -0.022 | [16] 0.005 | [17] -0.018 | [12] -0.059 | [18] -0.002 | [13] 0.104 | [19] 0.008 | [14] -0.022 | [20] 0.05

Pulled one by one from above, two records:
TNRC6B (UniProt Q9UPQ9)
inactive: [1] -0.021 | [2] -0.056 | [3] -0.025 | [4] 0.033 | [5] -0.063 | [6] 0.078 | [7] -0.03 | [8] -0.078 | [9] 0.179 | [10] -0.028 | [11] 0.035 | [12] 0.127 | [13] 0.024 | [14] 0.093

TNPO1 (UniProt Q92973)
inactive: [1] -0.008 | [2] -0.034 | [3] 0.058 | [4] -0.116 | [6] -0.128 | [8] 0.011 | [9] -0.034 | [15] -0.113 | [10] -0.104 | [11] 0.022 | [16] -0.037 | [17] -0.128 | [12] -0.067 | [18] -0.079 | [13] -0.034 | [19] 0.009 | [14] -0.026 | [20] 0.005

Remaining list, next part:

TPK1 (UniProt Q9H3S4)
inactive: [1] 0.044 | [2] -0.017 | [3] 0.075 | [4] 0.077 | [5] 0.039 | [6] -0.221 | [7] -0.005 | [8] 0.048 | [9] 0.01 | [15] -0.136 | [10] -0.005 | [11] -0.186 | [12] 0.044 | [13] -0.007 | [19] -0.026 | [14] 0.02 | [20] 0

TPP2 (UniProt Q5VZU9)
inactive: [1] 0.114 | [2] -0.082 | [3] -0.165 | [4] 0.329 | [5] -0.078 | [7] -0.426 | [8] 0.41 | [9] 0.093 | [15] -0.02 | [10] 0.053 | [16] 0.177 | [17] 0.163 | [12] 0.03 | [18] 0.063 | [13] -0.264 | [19] -0.041 | [14] 0.026 | [20] -0.238

TRAF2 (UniProt Q12933)
inactive: [1] 0.028 | [2] 0.011 | [3] 0.027 | [4] -0.029 | [5] 0.024 | [6] -0.028 | [7] 0.035 | [8] -0.002 | [9] -0.008 | [15] 0.028 | [10] -0.027 | [11] -0.024 | [16] 0.004 | [17] -0.018 | [12] -0.033 | [18] -0.014 | [13] 0.026 | [19] -0.008 | [14] -0.01 | [20] 0.027

TRAPPC6B (UniProt Q86SZ2)
inactive: [1] -0.008 | [2] 0.024 | [3] 0.111 | [4] -0.069 | [6] -0.045 | [8] -0.014 | [9] 0.025 | [15] 0.014 | [10] -0.005 | [11] -0.024 | [16] -0.008 | [17] -0.027 | [12] -0.042 | [18] 0.021 | [13] 0.024 | [19] 0.04 | [14] -0.028 | [20] 0.045

TRAPPC8 (UniProt Q9Y2L5)
inactive: [1] 0.036 | [2] -0.033 | [3] -0.008 | [4] 0.032 | [6] -0.056 | [8] 0.117 | [9] -0.012 | [15] -0.138 | [10] -0.037 | [11] 0.044 | [16] -0.055 | [17] -0.04 | [12] -0.133 | [18] 0.059 | [13] 0 | [19] 0.004 | [14] -0.013 | [20] 0.045

TSC22D4 (UniProt Q9Y3Q8)
inactive: [1] -0.018 | [2] 0.01 | [3] 0.013 | [4] 0.024 | [5] -0.002 | [6] 0.017 | [7] 0.018 | [8] 0.002 | [9] -0.053 | [15] 0.031 | [10] -0.08 | [11] -0.01 | [16] -0.061 | [17] -0.068 | [12] -0.046 | [18] -0.008 | [13] 0.035 | [19] -0.008 | [14] 0.009 | [20] 0.024

TOE1 (UniProt Q96GM8)
inactive: [1] 0.013 | [2] 0 | [3] -0.221 | [4] 0.211 | [6] 0.219 | [8] 0.066 | [9] 0.065 | [15] -0.021 | [10] 0.301 | [11] 0.033 | [16] 0.152 | [17] 0.178 | [12] 0.097 | [18] 0.017 | [13] -0.113 | [19] -0.072 | [14] -0.036 | [20] 0.111

TNNC2 (UniProt P02585)
inactive: [1] -0.004 | [2] 0.06 | [3] 0.04 | [4] -0.005 | [6] 0.078 | [8] -0.059 | [9] -0.014 | [15] 0.022 | [10] -0.057 | [11] -0.058 | [16] 0.057 | [17] 0.024 | [12] 0.022 | [18] -0.015 | [13] 0.049 | [19] 0.032 | [14] 0.015 | [20] 0.001
active: [7] -1.1

TOM1L1 (UniProt O75674)
active: [6] -0.342 | [11] -0.265
inactive: [1] -0.001 | [2] 0.08 | [3] 0.184 | [4] -0.059 | [8] 0.011 | [9] -0.021 | [15] -0.016 | [10] -0.025 | [16] -0.003 | [17] -0.069 | [12] -0.04 | [18] 0.087 | [13] 0.031 | [19] 0.032 | [14] 0.06 | [20] 0.034

TRAM1 (UniProt Q15629)
active: [2] -0.587 | [6] -0.47 | [15] -0.964
inactive: [1] 0.075 | [3] 0.017 | [4] 0.014 | [8] 0.09 | [9] -0.119 | [10] -0.152 | [11] 0.117 | [16] -0.075 | [17] 0.074 | [12] -0.138 | [18] 0.072 | [13] -0.07 | [19] 0.02 | [14] -0.152 | [20] -0.022

TRAPPC13 isoform 5 (UniProt A5PLN9)
active: [12] -0.346
inactive: [1] -0.037 | [2] -0.054 | [3] 0.067 | [4] 0.009 | [6] -0.007 | [8] 0.087 | [9] 0.047 | [15] 0.032 | [10] 0.11 | [11] 0.149 | [16] -0.019 | [17] 0 | [18] -0.056 | [13] 0.002 | [19] -0.112 | [14] -0.011 | [20] 0.057

— the supplement of paper PMC10849652
